Results reported in patent publication US20150004636A1, “NEURONAL BIOSENSOR FOR DETECTION OF TOXINS” (priority 2011, published 2015).

Test system: DRG neurons
Experiment: Fluorescence spectroscopy of FM 4-64 labeled DRG neurons
Format: cell-based, chick
Protocol: For spectroscopy experiments, DRG neurons were grown on 11×22 mm plastic coverslips that were treated with Alconox and coated with Type VII rat tail collagen, using the same methods that were mentioned previously. Cells were plated with ˜15×10^4 cells in each 35 mm tissue culture dish containing one plastic coverslip. The cells were incubated in 5% CO2 at 37° C. for 2 days before experiments began.
Before scanning the cell samples, the coverslip was mounted into a coverglass holder and was held inside a cuvette at a 45° angle from the light source and the photo detector. The coverglass holder was placed in a cuvette containing 1×HBSS to rinse the media from the cells prior to the experiments. For the spectroscopy experiments, the coverglass holder was placed in the cuvette that was filled with either 1×HBSS or stimulating solutions. The orientation of the coverglass in the cuvette was situated so that the cell surface was facing the light source and photodetector, both at 45° angles. For experiments using FM® 4-64, scan were conducted using a HORIBA Jobin Yvon FluoroLog®-3 spectrofluorometer with an excitation wavelength of 558 nm and an emission range was detected from 566 to 750 nm. The slit width for excitation and emission was 3 nm and data was collected every 0.2 sec, once for each wavelength. Fluorescence intensity was detected in counts per second (cps). The data was transferred into MS Excel and analyzed using Matlab.
In Matlab, the maximum intensity of each scan was found for the emission wavelength range of interest and the ratio of the maximum emission intensities was taken between non-labeled, non-stimulated cells and FM®-labeled cells before and after stimulation. This ratio was used to determine the difference in fluorescence, and therefore the amount of stained membranes present in the sample before and after stimulation with ionomycin.
To determine whether a change in fluorescence of FM®-labeled neurons could be measured, the cells were stained and stimulated using the same methods mentioned above. Four emission scans were performed: a control scan of the non-labeled neurons in HBSS, a scan of the FM®-labeled neurons in HBSS, a scan of the FM® labeled neurons in ionomycin 5 min after initial stimulation, and a scan of the post stimulated, FM®-labeled neurons in 1×HBSS wash. The cells were rinsed with warm 1×HBSS before each scan, and the cells were stimulated for a total of 10 min before rinsed with 1×HBSS for the fourth scan. The ratio of fluorescence intensities of non-labeled neurons to FM®-labeled neurons, FM®-labeled ionomycin-stimulated neurons, and FM®-labeled ionomycin-stimulated rinsed neurons in Table 5.

[1] = FM-labeled neurons in HBSS, before stimulation

| SMILES | shift of peak emission wavelength up from non-labeled neuron scans | Ratio of Fluorescence Intensities at 667 nm (FM-labeled neurons in HBSS vs non-labeled neurons) | Fluorescence Intensity at 667 nm [1] [cps] | Fluorescence Intensity at Peak Emission Wavelength [1] [cps] | Peak Emission Wavelength (FM-labeled neurons in HBSS, before stimulation, excitation 558 nm) [nm] |
| --- | --- | --- | --- | --- | --- |
| CCN(CC)c1ccc(/C=C/C=C/C=C/c2cc[n+](CCC[N+](CC)(CC)CC)cc2)cc1.[Br-].[Br-] [FM® 4-64] | 7-9 nm | 1.85 | 2975 | 3098 | 674 |
| C[C@H](CCC(=O)O)C[C@H](C)C[C@H](C)C(=O)/C=C(\O)[C@H](C)C[C@H](C)C/C=C/[C@@H](C)[C@@H](O)[C@@H](C)[C@@H](O)C[C@@H]1CC[C@@](C)([C@H]2CC[C@@](C)([C@@H](C)O)O2)O1 [ionomycin] | 15-19 nm | – | – | – | – |
